Among all 340,000 compounds or so, about 6,200 (1.8%) were called active. Inconclusive results, whose numbers are uncertain, are shown with a selection of clear calls. The call rests on the fitted dose curve; in most records, active means well fitted activation curve with a large enough effect; inconclusive means small, poorly fitted or top-dose-only effect; inactive means no such curve, though single readings can be large or run the other way. Where the call is inconclusive, the potency comes from a doubtful curve fit.
Test: A quantitative high throughput screen for small molecules that induce DNA re-replication in SW480 colon adenocarcinoma cells. Further: nearly all actives have a fitted effect of over 55% in size.
Conditions: Hoechst DNA content imaging, 48 h; series mostly up to 46.1 µM
Outline: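 Quantitative HTS format with DMSO vehicle controls; 48 hr drug incubation at 37 C, then 40 min Hoechst staining and scanning imager measurement at 405 nm excitation.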
Potency means the concentration at half of the fitted maximal effect.

Structure (SMILES)	Potency
O=C(O)CC(C(=O)O)N1C(=O)/C(=C/C=C/c2ccco2)SC1=S (configuration not stated)	inactive
COc1cc(C(=O)NCCNc2nc3c(C)c(C)ccc3cc2C#N)cc(OC)c1OC	inconclusive: 29.1 µM [activator, single point]
CC(C)NC(=S)Nc1ccc2[nH]c(=O)[nH]c2c1	inconclusive: 2.91 µM [activator, single point]
CCOC(=O)Oc1c(OC)cc(C(=O)O[C@H]2C[C@H]3CN4CCc5c([nH]c6cc(OC)ccc56)[C@@H]4C[C@H]3[C@@H](C(=O)OC)[C@@H]2OC)cc1OC	inconclusive: 14.3 µM [activator, partial curve, poor fit]
CCc1ccc(N/C(N)=N/c2nc(CSc3ncccn3)cc(=O)[nH]2)cc1	inconclusive: 23.1 µM [activator, single point]
O=C(O)c1ccccc1SCc1cn2cc(Br)ccc2n1	inactive
COc1ccc(CNc2nc(-c3cccnc3)nn2S(C)(=O)=O)cc1	inconclusive: 18.4 µM [activator, partial curve]
COc1ccccc1CNc1nc(=S)[nH]c2cc(OC)c(OC)cc12	active: 3.26 µM
O=C1/C(=C\c2cccnc2)SC(=S)N1C1CCS(=O)(=O)C1 (configuration not stated)	inconclusive: 16.4 µM [activator, single point]
CC(OC(=O)/C=C/c1ccco1)C(=O)NC1CCCCC1C (configuration not stated)	inactive
CN(C)CCCNC(=O)C[C@H]1C[C@H](C(=O)N2CCOCC2)[C@@]2(C)c3[nH]c4cc(CCC(=O)N(C)C)ccc4c3CCN2C1=O	inconclusive: 23.1 µM [activator, single point]
Cc1c(C(=O)NCc2cccnc2)oc2ccc(S(=O)(=O)N3CCC4(CC3)OCCO4)cc12	inactive
COc1ccc(NS(=O)(=O)c2cc(NC(=O)c3cccs3)ccc2N2CCOCC2)cc1	inconclusive: 20.6 µM [activator, single point]
CCOC(=O)c1sc(NC(=O)CSCc2c(C)noc2C)nc1C	inconclusive: 6.51 µM [activator, single point]
COc1ccc(Cl)cc1NC(=O)C1CCN(C(=O)Nc2ccccc2)CC1	inconclusive: 29.1 µM [activator, single point]
CCNC(=O)N1CCC(c2nc3ccccc3s2)CC1	inconclusive: 3.66 µM [activator, full curve, poor fit]
CCc1ccc(NC(=O)[C@H](Cc2c[nH]c3ccccc23)NC(=O)[C@@H]2Cc3ccccc3CN2)cc1	active: 16.4 µM
COc1cccc(CN2CCN(C(c3ccccc3)c3ccccc3)CC2)c1O	inconclusive: 29.1 µM [activator, partial curve, poor fit]
O=C(NCCN1C(=O)CSC1=O)c1ccccc1	inconclusive: 14.6 µM [activator, partial curve, poor fit]
O=C(CCn1c(=O)sc2ccccc21)NC1CCCCC1	inactive
Cc1ccc(S(=O)(=O)Nc2cccc(C(=O)NC3CCN(Cc4ccccc4)CC3)c2)cc1F	inconclusive: 20.6 µM [activator, single point]
COCCOC(=O)c1c(C)nc(SCC(=O)Nc2cccc3ccccc23)c(C#N)c1-c1ccco1	inactive
COc1ccc(NC(=O)CSc2nc(C3CC3)nc3ccccc23)cc1	active: 13 µM

Pulled by structure from the list above, five records:
Structure (SMILES)	Potency
CC(OC(=O)/C=C/c1ccco1)C(=O)NC1CCCCC1C (configuration not stated)	inactive
CN(C)CCCNC(=O)C[C@H]1C[C@H](C(=O)N2CCOCC2)[C@@]2(C)c3[nH]c4cc(CCC(=O)N(C)C)ccc4c3CCN2C1=O	inconclusive: 23.1 µM [activator, single point]
COc1ccc(Cl)cc1NC(=O)C1CCN(C(=O)Nc2ccccc2)CC1	inconclusive: 29.1 µM [activator, single point]
CCc1ccc(NC(=O)[C@H](Cc2c[nH]c3ccccc23)NC(=O)[C@@H]2Cc3ccccc3CN2)cc1	active: 16.4 µM
O=C1/C(=C\c2cccnc2)SC(=S)N1C1CCS(=O)(=O)C1 (configuration not stated)	inconclusive: 16.4 µM [activator, single point]

Later entries

Structure (SMILES)	Potency
COC(=O)c1c(NC(=O)Cc2cccs2)sc(C(=O)NC2CCCCC2)c1C	inconclusive: 6.51 µM [activator, partial curve, poor fit]
Clc1ncnc2scc(C3COc4ccccc4O3)c12 (configuration not stated)	inconclusive: 29.1 µM [activator, single point]
Cc1ccc(N(C)S(=O)(=O)c2ccc(-c3cc(C)no3)s2)cc1	inconclusive: 5.8 µM [activator, full curve, poor fit]
COc1ccc(C(C(=O)NCc2ccccc2)N(Cc2ccco2)C(=O)c2snc(C(N)=O)c2N)cc1OC (configuration not stated)	inactive
CCc1ccc(N(C(=O)c2ccco2)C(C(=O)NC2CCCC2)c2ccco2)cc1 (configuration not stated)	inconclusive: 32.6 µM [activator, partial curve, poor fit]
Cc1cc2nc(/C=C/c3nc4cc(C)c(C)cc4[nH]3)[nH]c2cc1C	active: 23.1 µM
N#C/C(=C/c1ccc(N2CCOCC2)o1)c1nc2ccccc2[nH]1	inactive
O=C(C(=O)N1CCN(c2ccc(F)cc2)CC1)c1cn(CC(=O)N2CCOCC2)c2ccccc12	inactive
COc1ccc(S(=O)(=O)NCc2ccco2)cc1NC(=O)c1ccccc1	inconclusive: 29.1 µM [activator, single point]
COCc1nnc(NC(=O)C2CC(=O)N(c3ccc(C)c(Cl)c3)C2)s1 (configuration not stated)	inconclusive: 20.6 µM [activator, single point]
COc1ccc(/C=C/C(=O)C2CC2)cc1COc1c(C)cccc1C	inconclusive: 18.4 µM [activator, single point]
C/C(=N\O)c1ccc2c3ccccc3n(C)c2c1	inactive
COc1ccc(/C=C(/C(=O)c2cccs2)N2C=CC=CC2=C(C#N)C#N)cc1	inconclusive: 29.1 µM [activator, single point]
COc1ccc(OC)c(S(=O)(=O)Nc2ccc3c(c2)C(=O)OC3)c1	inactive
CC(=O)NC(c1cc(Cl)c2ccccc2c1O)C(C)C (configuration not stated)	inconclusive: 29.1 µM [activator, single point]
C/C(=N\NC(=O)c1ccc(F)cc1)c1ccc(NC(=O)Cc2ccccc2)cc1	inactive
Cc1ccc2[nH]c(=O)c(CN(Cc3cccs3)Cc3nnnn3Cc3ccccc3)cc2c1	inconclusive: 29.1 µM [activator, single point]
O=c1[nH]c2ccccc2n1C1=CCCC1	inactive
S=C(N/N=C/c1ccccc1Cl)Nc1ccccc1	inconclusive: 18.4 µM [activator, single point]
Cc1ccc(N=C2C(=O)Nc3ccc(Br)cc32)cc1	inconclusive: 18.4 µM [activator, partial curve, poor fit]
COc1ccc(/C=N/NC(=O)Nc2nonc2N)cc1	inactive
Cc1ccc2cc(CN(Cc3ccc(F)cc3)Cc3nnnn3C3CCCC3)c(=O)[nH]c2c1	inactive
COc1ccc2[nH]c(=O)c(CN(CC3CCCO3)C(=O)Nc3ccccc3OC)cc2c1 (configuration not stated)	inconclusive: 16.4 µM [activator, single point]

Structure (SMILES)	Potency
Cc1cccn2c(=O)c3cc(C(=O)NC4CCCCC4C)n(C)c3nc12 (configuration not stated)	active: 20.6 µM
CCOC(=O)NC1CCc2cc(OC)c(OC)c(OC)c2-c2ccc(SC)c(=O)cc21 (configuration not stated)	active: 0.0366 µM
O=C(NCc1ccccc1Cl)C(=O)c1cn(CC(=O)N2CCOCC2)c2ccccc12	inconclusive: 11.2 µM [activator, partial curve, poor fit]
O=C(NCc1ccc(F)cc1)C(=O)Nc1nc(C23CC4CC(CC(C4)C2)C3)cs1	inconclusive: 25.9 µM [activator, single point]
COc1cc(C#Cc2c(-c3cncn3C)n(C)c3ccc(-c4ccc5[nH]ccc5c4)cc23)cc(OC)c1	inconclusive: 2.06 µM [activator, partial curve]
CCN(Cc1ccncc1)C(=O)CCc1ccccc1	inconclusive: 0.231 µM [activator, full curve, poor fit]
Cc1cccc(Nc2nc(N)c([N+](=O)[O-])c(NCc3ccco3)n2)c1	inconclusive: 29.1 µM [activator, partial curve, poor fit]
COC(=O)C1C(O)C(C)C(O)C(C)(O)/C=C\C=C(/C)C(=O)Nc2c(C)c(OC(C)=O)c3c(c2O)C(=O)C(C)=C2OCOC(=C23)/C(C)=C/C(C)(O)C(O)C(C)C1O (configuration not stated)	inconclusive: 29.1 µM [activator, single point]
COc1ccccc1Nc1cc2cc(Br)ccc2c(=O)[nH]1	inconclusive: 32.6 µM [activator, partial curve, poor fit]
OCCN1CCN(c2nc(-c3ccccc3)c3cc(Cl)ccc3n2)CC1	active: 14.6 µM
O=C(OCC(=O)N1CCCCCC1)c1ccc[nH]c1=O	inconclusive: 29.1 µM [activator, partial curve, poor fit]
CC(NC(=S)NC1CCCCC1)c1ccc(C(C)(C)C)cc1 (configuration not stated)	inactive
COc1cccc(C2NC(c3cccc(OC)c3O)C(C)C(=O)C2C)c1O (configuration not stated)	inconclusive: 10.3 µM [activator, partial curve]
O=C(Nc1nc2ccccc2s1)C1c2ccccc2Oc2ccccc21	inconclusive: 18.4 µM [activator, single point]
Cc1ccc(Cn2nc(C)c(NC(=O)c3cc(-c4ccc5c(c4)OCO5)on3)c2C)cc1	inconclusive: 29.1 µM [activator, single point]
COc1ccc(OC)c(NC(=O)CSc2nncc(=O)n2N)c1	inactive
O=C(CN(c1cccc(C(F)(F)F)c1)S(=O)(=O)c1ccc(Cl)c([N+](=O)[O-])c1)NCc1ccccc1	active: 13 µM
CC(=O)Oc1ccc(N(C(C)=O)S(=O)(=O)c2ccc(C)cc2C)c2ccccc12	inconclusive: 2.91 µM [activator, full curve, poor fit]
CCN(CC)c1ccc(-c2nn3c(-c4n[nH]c5c4CCC5)nnc3s2)cc1	active: 1.84 µM
O=C(COc1ccccc1)c1cn(CC(=O)N2CCCC2)c2ccccc12	inactive
CCCCCC(=O)O[C@]1(C(C)=O)CC[C@H]2[C@@H]3CCC4=CC(=O)CC[C@]4(C)[C@H]3CC[C@@]21C	inconclusive: 29.1 µM [activator, single point]

— PubChem BioAssay AID624297 (National Center for Advancing Translational Sciences (NCATS), 2012)
